Test results as given in article PMC7559231, “Drug-induced cholestasis assay in primary hepatocytes” (MethodsX, 2020).

System: sandwich-cultured human hepatocytes
Assay: Drug-induced cholestasis (DIC) assay: urea formation in sandwich-cultured human hepatocytes with and without the bile salt mixture
Settings: lowest in vitro concentration with DICI < 0.78 / Cmax,total
Text: Drug-induced cholestasis (DIC) is a major cause of attrition during drug development and post-marketing withdrawal. Early detection of DIC is crucial for avoiding financial losses and improving drug safety. Preclinical assays for DIC detection often rely on evaluation of the test compound towards individual cellular targets such as their inhibitory potential towards the bile salt export pump (BSEP) by using BSEP membrane vesicles. However, the underlying mechanisms of DIC development are more complex involving multiple other transporters and nuclear receptors. A more comprehensive in vitro model such as sandwich-cultured human hepatocytes (SCHH) are more suited due to the presence of metabolizing enzymes and transporters relevant to bile salt disposition. The assay described here relies on changes in the ability of SCHH to produce urea from ammonia in the absence and presence of a (patho-)physiologically relevant bile salt mixture. […] Measuring changes in urea production allows for the quantitative evaluation of the hepatocyte's biochemical and functional integrity. The colorimetric quantitation of urea formation is based on the reaction between urea and diacetylmonoxime.
By determining the ratio of urea formation after incubation with test compound in absence and in presence of the bile salt mixture, the DIC index (DICI) value can be calculated. […]

In the case of `CCCCc1oc2ccccc2c1C(=O)c1cc(I)c(OCCN(CC)CC)c(I)c1` [Amiodarone, amiodarone], the “DICI-based SM obtained with the ‘original’ LOAEL method 24 h” value (24 h incubation) is reported as 30.86 and the “DICI-based SM obtained with the ‘original’ LOAEL method 48 h” value (48 h incubation) is reported as 30.86.
